# Primary screen of a compound library

From ChEMBL document CHEMBL3988442, “University of Dundee, Small-Polar-MMV Screening Library” (2021).

Values are the deposited “Percent Effect”, in %. The controls that fix the scale are not given in the record; negative values are as filed. Compounds were drawn at random from those tested, without regard to their results. A dash means the value is not listed here; it may have been measured.

Mtb growth Cornell: 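Whole-cell assay for inhibitors of Mycobacterium tuberculosis growth, labelled Cornell in the record; the read-out is not stated. The concentration is filed as 10 mM, unlikely as a test dose, so the dose is not known. Higher means stronger inhibition (inferred from two other growth screens of the library). Size under these conditions: about 53,000 compounds, about 900 of them at 50% or above in at least one test.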
Mtb heat-shock: 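Assay on Mycobacterium tuberculosis, filed only as a heat shock assay from Cornell; the read-out is not stated. The concentration is filed as 10 mM, unlikely as a test dose, so the dose is not known. Direction is inferred from retests: higher values go with stronger inhibition. About 69,000 compounds were tested under these conditions; 1.4% (about 930) showed 50% or more at least once.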

SMILES	Mtb growth Cornell	Mtb heat-shock
O=C(Nc1nncs1)NC1CCN(Cc2ccccc2)C1 (centres undefined)	-	3.877
Cc1cc(C(=O)N2CCCC2CN2CCCC2)no1 (centres undefined)	6.523	-8.099
CS(=O)(=O)NC[C@H]1Cn2c(-c3ccccc3)cnc2CO1	15.96	-39.38
C[C@@H](O)CNC(=O)c1nc(CC(=O)Nc2cccc(C(F)(F)F)c2)no1	-9.838	6.16
CNc1cc(N2CCCC2CNCc2ccc(C)o2)ncn1 (centres undefined)	-46.19	-17.34
CC(NC(=O)CNc1cc2c(cc1Cl)OCCO2)c1ccco1 (centres undefined)	13.18	-11.6
Cn1cc(C2CCCN2C(=O)COCCc2ccccc2)cn1 (centres undefined)	-	-7.105
CS(=O)(=O)CCCSc1cccc(C#N)c1	-	-14.39
Cc1[nH]c2ccc(CNC3CCN(Cc4ccccn4)CC3)cc2c1C	23.21	10.19
CNC(=O)CCNC(=O)Nc1cccc(Cl)c1SC(F)F	21.2	2.853
COc1c(CC2CC(C(=O)O)=NO2)c(Br)c2c(c1OC)OCO2 (centres undefined)	14.91	-23.5
[H][C@@]12CCCO[C@]1([H])[C@H](OCc1cccnc1)CN2C(=O)c1cccn1C	-38.63	-22.51
CCN(CCO)C(=O)c1cc(Cn2c(C)nc3ccccc32)[nH]n1	-	-13.86
O=c1[nH]c2nc(N3CCOCC3)ncc2c(=O)n1-c1cccc(F)c1	22.29	-4.922
OCc1ccc(CN2CCC(n3cc(-c4ccc(F)cc4)nn3)CC2)o1	13.5	-33.75
COc1ccc(OC)c(CCNC(=O)NC(C)Cn2ccnc2)c1 (centres undefined)	-	-3.784
CCC(CC)C(=O)NS(=O)(=O)c1ccc(C#N)cc1C(F)(F)F	-6.392	3.533
CCc1nc(CC)n(CC(=O)NCc2cccc(C)c2)n1	8.749	8.166
CCCN1CCC(c2nc3ccc(NCc4cccnc4)cn3n2)CC1.O=C(O)C(F)(F)F.O=C(O)C(F)(F)F.O=C(O)C(F)(F)F	-41.16	-6.908
[H][C@@]12CCN(C(=O)c3ccco3)C[C@@]1([H])O[C@H](c1nccs1)C2	31.64	4.324
O=C(O)C(F)(F)F.[H][C@@]12CCN(Cc3c(C)noc3C)C[C@]1(C(=O)NCCOC)CCO2	12.39	1.356
[H][C@]12CCN(C(=O)C3CCCO3)[C@@]1([H])CCC(=O)N2CCN1CCCC1 (some centres undefined)	-	21.68
Cc1ccc(C(=O)N2CCCC(Cn3cc(C(C)(C)N)nn3)C2)s1 (centres undefined)	2.77	1.85
Cc1nc(N2CCN(C)CC2)ncc1C(=O)N1CCCCC1	-	-9.448
FC(F)(F)CCc1ccnc(N[C@H]2CC[C@H](n3cnnc3)CC2)n1	16.41	-25.37
Cc1oc(C(C)C)cc1C(=O)N1CCN(c2cnn(C)c(=O)c2)CC1	-9.285	-5.83
Cl.Cl.O=C(NCc1cncc2c1CCN(C1CCOC1)C2)c1ccco1 (centres undefined)	-2.606	20.97
O=C(c1ccn(-c2ccccc2Cl)n1)N1CCSCC1	-39.3	-5.781
c1csc(-c2nc(CN3CCOC(Cn4cccn4)C3)cs2)c1 (centres undefined)	-0.2167	-13.89
COC(=O)CC1CCN(C(=O)c2ccccc2-n2nnnc2C)CC1	31.36	-2.246
COc1cccc(-c2noc(C3CCN(Cc4ccncc4)C3)n2)c1 (centres undefined)	30.19	9.685
CCc1cc(=O)n(CC(=O)N2CCC(C)CC2)c(-c2ccccc2)n1	13.4	-5.122
CN(Cc1nnc2ccccn12)C(=O)CC1CCCCC1	21.87	0.1409
Cc1n[nH]c(C)c1CN1CCC(c2cc(C(C)C)n[nH]2)CC1	-18.98	7.156
O=C(O)C(F)(F)F.[H][C@@]12C[C@H](C(=O)NC3CC3)CN(Cc3cccc4ccccc34)[C@]1([H])CCO2	23.37	-4.203
CC(=O)N1CCCN(C(=O)c2ccn(-c3cccc(Cl)c3)n2)CC1	-19.62	11.64
O=C(Nc1ccccc1)NC1CCN(C2CCOC2)CC1 (centres undefined)	10.64	-10.87
CCc1nnc2n1CCN(C(=O)COCCc1ccccc1)C2	-35.02	-0.72
CCNC(=O)c1ccc(CNCc2c(C)nn(C)c2N(C)C)cc1	-	-6.597
Cc1ccc(C)c(S(=O)(=O)CCN2CCCC2Cn2cncn2)c1 (centres undefined)	23.02	12.56
CC(C)C(=O)N1CCC12CCCN(C(=O)c1ccccc1)C2 (centres undefined)	-53.55	11.29
CC(Sc1nnc(C2CC2)n1CC(N)=O)c1ccc(F)c(Cl)c1 (centres undefined)	-	12.95
O=C(NS(=O)(=O)c1ccc(C2CCCCC2)cc1)C1COCCO1 (centres undefined)	27.13	10.46
COCCn1ccnc1C1CCN(Cc2ccccc2C#N)CC1	12.61	-4.952
O=C(CN1CCCNC1=O)N1CCCC(c2nccs2)C1 (centres undefined)	-	2.92

4 of the entries, repeated:

SMILES,Mtb growth Cornell,Mtb heat-shock
CN(Cc1nnc2ccccn12)C(=O)CC1CCCCC1,21.87,0.1409
CS(=O)(=O)NC[C@H]1Cn2c(-c3ccccc3)cnc2CO1,15.96,-39.38
O=C(Nc1nncs1)NC1CCN(Cc2ccccc2)C1 (centres undefined),-,3.877
OCc1ccc(CN2CCC(n3cc(-c4ccc(F)cc4)nn3)CC2)o1,13.5,-33.75